Laboratory results taken from article PMC10542384.
Residue numbers refer to the chain shown, from its start. These are yes or no findings as the source states them, for the method shown. Binding seen in cells or lysates may run through a third protein. Some binding calls cover weakened binding; strength is not graded here. For part of these data: Where a sequence is shown, tags or fusion partners need not be part of it.

The chains behind the UniProt entries cited, without tags or fusion partners. Where a name states a change or a piece, a line headed by the entry shows the natural chain unless it says otherwise.
UniProt P54132: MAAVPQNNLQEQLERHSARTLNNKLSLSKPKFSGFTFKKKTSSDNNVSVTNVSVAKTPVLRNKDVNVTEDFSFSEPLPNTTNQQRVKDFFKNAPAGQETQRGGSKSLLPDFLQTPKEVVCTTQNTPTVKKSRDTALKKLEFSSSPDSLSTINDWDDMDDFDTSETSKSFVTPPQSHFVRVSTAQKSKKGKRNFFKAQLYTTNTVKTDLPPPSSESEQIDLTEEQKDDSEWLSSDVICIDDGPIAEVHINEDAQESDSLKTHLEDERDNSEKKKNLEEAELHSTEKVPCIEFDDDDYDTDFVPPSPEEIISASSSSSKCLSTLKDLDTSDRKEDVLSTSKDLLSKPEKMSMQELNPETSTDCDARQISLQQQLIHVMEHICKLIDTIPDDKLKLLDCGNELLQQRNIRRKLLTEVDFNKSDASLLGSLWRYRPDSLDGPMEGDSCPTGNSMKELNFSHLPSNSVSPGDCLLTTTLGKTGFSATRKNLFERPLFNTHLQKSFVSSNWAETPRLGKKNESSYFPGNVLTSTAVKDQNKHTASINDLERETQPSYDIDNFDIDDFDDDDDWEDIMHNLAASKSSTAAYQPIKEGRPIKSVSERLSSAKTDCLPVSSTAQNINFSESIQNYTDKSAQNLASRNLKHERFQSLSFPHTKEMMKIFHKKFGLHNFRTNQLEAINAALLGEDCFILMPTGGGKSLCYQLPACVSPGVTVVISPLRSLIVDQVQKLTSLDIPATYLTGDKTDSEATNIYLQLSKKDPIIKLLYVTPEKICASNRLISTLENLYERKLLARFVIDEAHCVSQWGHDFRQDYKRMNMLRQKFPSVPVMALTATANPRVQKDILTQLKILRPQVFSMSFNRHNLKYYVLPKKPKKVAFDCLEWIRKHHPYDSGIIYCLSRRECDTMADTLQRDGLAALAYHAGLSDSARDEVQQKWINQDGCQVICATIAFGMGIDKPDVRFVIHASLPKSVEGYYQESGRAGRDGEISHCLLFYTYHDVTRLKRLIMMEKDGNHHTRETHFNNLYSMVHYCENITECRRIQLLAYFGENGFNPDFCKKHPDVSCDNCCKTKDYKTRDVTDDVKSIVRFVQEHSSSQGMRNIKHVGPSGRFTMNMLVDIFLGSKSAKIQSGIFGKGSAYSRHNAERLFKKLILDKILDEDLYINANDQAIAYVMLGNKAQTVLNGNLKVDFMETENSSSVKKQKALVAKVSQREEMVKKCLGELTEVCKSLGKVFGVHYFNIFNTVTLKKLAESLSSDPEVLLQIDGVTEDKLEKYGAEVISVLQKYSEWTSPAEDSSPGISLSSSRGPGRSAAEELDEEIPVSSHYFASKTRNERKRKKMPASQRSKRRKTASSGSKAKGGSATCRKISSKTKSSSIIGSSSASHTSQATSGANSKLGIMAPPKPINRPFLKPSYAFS

How the values were obtained:
[1] = target: T1, RNF111 (Arkadia) (human (endogenous in 293T, U2OS)) (UniProt Q6ZNA4); test: proximity ligation; Duolink PLA on fixed and permeabilised cells (U2OS WT or KO cells complemented with the named constructs; Fig. 4d and 5b in cells expressing GFP-PML)
T1 sequence: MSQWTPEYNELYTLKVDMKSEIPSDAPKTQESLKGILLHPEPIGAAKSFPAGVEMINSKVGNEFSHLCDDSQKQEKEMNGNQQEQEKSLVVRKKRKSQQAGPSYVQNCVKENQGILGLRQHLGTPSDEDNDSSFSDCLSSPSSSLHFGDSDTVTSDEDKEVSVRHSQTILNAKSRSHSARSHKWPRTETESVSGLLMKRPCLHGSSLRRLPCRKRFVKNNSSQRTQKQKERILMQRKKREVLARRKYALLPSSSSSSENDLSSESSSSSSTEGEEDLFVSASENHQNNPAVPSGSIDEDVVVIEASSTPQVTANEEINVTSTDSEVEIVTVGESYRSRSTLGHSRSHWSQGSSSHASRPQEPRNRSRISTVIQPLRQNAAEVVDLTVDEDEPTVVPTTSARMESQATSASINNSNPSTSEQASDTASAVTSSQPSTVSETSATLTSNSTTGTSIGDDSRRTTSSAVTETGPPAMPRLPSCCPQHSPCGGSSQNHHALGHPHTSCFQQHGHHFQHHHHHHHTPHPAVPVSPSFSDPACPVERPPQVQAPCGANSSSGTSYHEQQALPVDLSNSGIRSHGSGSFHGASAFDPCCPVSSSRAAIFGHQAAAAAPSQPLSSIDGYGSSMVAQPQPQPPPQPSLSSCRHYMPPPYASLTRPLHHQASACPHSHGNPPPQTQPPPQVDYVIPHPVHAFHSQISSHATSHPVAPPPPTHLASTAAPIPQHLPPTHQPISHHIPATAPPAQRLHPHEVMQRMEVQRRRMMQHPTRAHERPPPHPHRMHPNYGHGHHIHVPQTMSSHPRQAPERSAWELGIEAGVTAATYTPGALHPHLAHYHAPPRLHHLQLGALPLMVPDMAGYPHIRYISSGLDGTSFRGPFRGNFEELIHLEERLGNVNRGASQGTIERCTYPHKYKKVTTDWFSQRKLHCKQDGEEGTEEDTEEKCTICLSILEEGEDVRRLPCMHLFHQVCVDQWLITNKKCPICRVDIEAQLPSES

[2] = target: T2, HA-tagged RNF111 wild type (RNF111^WT) (UniProt Q6ZNA4); test: co-IP; Flag/HA beads or antibodies on Protein A/G beads with lysates of 293T or U2OS cells in modified NETN buffer (20 mM Tris-HCl pH 7.6, 95 mM NaCl, 1 mM EDTA, 0.5% Nonidet P-40), 4 °C overnight, blot; Fig. 6j with or without the CK2 inhibitor TBB
T2 sequence: T1 sequence

[3] = target: T3, Arkadia-like 1 (ARKL1) (human (endogenous in U2OS)) (UniProt Q96B23); test: proximity ligation; Duolink PLA on fixed and permeabilised cells (U2OS WT or KO cells complemented with the named constructs; Fig. 4d and 5b in cells expressing GFP-PML)
T3 sequence: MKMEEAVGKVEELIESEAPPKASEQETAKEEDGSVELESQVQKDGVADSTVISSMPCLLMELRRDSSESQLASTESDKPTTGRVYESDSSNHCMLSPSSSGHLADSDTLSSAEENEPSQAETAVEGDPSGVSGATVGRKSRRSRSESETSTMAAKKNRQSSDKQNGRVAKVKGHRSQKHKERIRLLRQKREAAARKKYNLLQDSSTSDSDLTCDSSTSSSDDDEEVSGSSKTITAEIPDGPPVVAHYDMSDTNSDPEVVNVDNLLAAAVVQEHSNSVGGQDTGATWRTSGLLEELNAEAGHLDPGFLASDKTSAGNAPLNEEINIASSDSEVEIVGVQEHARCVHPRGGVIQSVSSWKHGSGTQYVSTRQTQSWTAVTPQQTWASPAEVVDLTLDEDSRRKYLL

[4] = target: T4, HA-ARKL1 wild type (UniProt Q96B23); test: as above
T4 sequence: T3 sequence

[5] = target: T5, ARKL1 S328A mutant (ARKL1^S328A) (UniProt Q96B23); test: co-IP; Flag/HA beads or antibodies on Protein A/G beads with lysates of 293T or U2OS cells in modified NETN buffer (20 mM Tris-HCl pH 7.6, 95 mM NaCl, 1 mM EDTA, 0.5% Nonidet P-40), 4 °C overnight, blot; Fig. 6j with or without the CK2 inhibitor TBB
T5 sequence: T3 sequence with S328A

[6] = target: T6, ARKL1 wild type (ARKL1^WT), construct not told (UniProt Q96B23); test: as above
T6 sequence: T3 sequence

[7] = target: T7, ARKL1-Flag (UniProt Q96B23); test: as above
T7 sequence: T3 sequence

[8] = target: GFP-tagged BLM K317R/K331R mutant (UniProt P54132); test: as above
[9] = target: GFP-tagged BLM wild type (UniProt P54132); test: as above
[10] = target: T4, HA-ARKL1 wild type; test: as above
[11] = target: T8, GFP-ARKL1 (UniProt Q96B23); test: as above
T8 sequence: T3 sequence

Measured: binding

Bloom syndrome helicase (BLM) (from UniProt P54132 1-1417)
binds: [1] | [2]

B1: RNF111 (Arkadia) (protein, UniProt Q6ZNA4 1-994)
chain: T1 sequence
not listed: [1] | [2] | [11]
binds: all other assays above

B2: HA-Flag-tagged RNF111 wild type (RNF111^WT) (protein, UniProt Q6ZNA4 1-994)
chain: T1 sequence
binds: [11]

B3: HA-RNF111 wild type (HA-RNF111^WT) in RNF111 KO U2OS cells (protein, UniProt Q6ZNA4 1-994)
chain: T1 sequence
binds: [3]
